Results: publication PMC7728349, “Exploring the Interaction between the SWI/SNF Chromatin Remodeling Complex and the Zinc Finger Factor CTCF” (International Journal of Molecular Sciences, 2020)
These are yes or no findings as the source states them, for the method shown. Binding seen in cells or lysates may run through a third protein. Some entries that bind do so weakly or less than the wild type.

The chains behind the UniProt entries cited, without tags or fusion partners.
UniProt Q12824: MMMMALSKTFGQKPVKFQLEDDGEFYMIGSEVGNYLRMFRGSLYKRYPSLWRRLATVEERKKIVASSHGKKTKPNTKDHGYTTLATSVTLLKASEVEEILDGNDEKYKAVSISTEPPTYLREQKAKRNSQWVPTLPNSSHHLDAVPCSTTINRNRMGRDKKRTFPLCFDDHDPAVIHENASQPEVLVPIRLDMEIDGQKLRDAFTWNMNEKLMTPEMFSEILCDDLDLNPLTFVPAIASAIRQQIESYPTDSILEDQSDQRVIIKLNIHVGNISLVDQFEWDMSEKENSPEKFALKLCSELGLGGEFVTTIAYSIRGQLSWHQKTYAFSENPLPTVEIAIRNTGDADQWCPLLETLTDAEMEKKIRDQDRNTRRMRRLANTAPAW
UniProt Q9H8M2: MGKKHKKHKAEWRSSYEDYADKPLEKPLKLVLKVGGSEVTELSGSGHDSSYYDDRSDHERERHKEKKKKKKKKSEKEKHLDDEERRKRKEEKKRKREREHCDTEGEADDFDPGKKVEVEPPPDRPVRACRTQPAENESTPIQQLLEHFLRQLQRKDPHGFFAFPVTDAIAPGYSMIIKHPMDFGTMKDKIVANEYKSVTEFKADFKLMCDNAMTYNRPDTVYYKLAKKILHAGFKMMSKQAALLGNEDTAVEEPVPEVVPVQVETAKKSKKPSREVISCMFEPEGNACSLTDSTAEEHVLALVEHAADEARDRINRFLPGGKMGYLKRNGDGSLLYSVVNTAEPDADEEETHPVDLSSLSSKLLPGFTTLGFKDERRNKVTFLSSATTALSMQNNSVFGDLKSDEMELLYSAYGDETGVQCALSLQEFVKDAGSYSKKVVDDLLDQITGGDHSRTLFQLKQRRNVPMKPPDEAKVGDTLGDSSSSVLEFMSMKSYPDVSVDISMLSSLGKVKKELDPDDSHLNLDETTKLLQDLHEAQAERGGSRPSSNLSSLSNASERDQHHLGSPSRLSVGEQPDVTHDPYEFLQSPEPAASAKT
UniProt Q8TAQ2: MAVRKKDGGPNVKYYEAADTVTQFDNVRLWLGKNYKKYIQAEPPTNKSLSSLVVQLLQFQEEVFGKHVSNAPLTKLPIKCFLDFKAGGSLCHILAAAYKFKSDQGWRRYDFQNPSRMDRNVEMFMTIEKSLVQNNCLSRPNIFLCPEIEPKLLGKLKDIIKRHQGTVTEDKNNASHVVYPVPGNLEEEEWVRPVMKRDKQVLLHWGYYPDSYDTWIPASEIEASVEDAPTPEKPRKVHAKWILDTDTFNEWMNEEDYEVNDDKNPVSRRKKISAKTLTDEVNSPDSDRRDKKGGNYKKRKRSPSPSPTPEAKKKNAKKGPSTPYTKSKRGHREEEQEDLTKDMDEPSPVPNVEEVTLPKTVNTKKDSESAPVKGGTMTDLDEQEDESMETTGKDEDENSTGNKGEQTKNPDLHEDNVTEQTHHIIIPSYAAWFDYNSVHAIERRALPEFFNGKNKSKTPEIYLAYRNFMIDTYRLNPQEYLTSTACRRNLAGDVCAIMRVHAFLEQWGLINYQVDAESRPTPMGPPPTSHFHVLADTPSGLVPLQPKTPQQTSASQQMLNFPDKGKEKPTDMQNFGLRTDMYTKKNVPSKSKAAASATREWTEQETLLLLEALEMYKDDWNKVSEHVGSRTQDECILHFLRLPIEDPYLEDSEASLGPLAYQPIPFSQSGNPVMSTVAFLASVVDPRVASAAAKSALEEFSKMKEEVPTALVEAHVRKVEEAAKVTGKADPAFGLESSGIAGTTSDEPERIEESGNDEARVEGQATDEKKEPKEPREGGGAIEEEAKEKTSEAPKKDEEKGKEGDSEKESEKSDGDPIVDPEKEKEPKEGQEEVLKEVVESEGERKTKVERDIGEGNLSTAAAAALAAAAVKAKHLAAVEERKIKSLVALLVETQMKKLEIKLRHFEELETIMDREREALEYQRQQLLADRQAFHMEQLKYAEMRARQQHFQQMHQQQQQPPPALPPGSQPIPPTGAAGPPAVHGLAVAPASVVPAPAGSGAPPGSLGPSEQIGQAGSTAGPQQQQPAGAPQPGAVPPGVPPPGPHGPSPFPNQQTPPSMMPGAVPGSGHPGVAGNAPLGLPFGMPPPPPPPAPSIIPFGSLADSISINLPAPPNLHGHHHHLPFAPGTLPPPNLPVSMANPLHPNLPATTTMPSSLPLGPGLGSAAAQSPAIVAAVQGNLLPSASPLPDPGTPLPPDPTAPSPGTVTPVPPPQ

biological target: T1, Endogenous CTCF (HeLa) (human (endogenous in HeLa)) (UniProt P49711); experiment: co-IP; endogenous CTCF immunoprecipitated with pAb anti-CTCF from 500 µg HeLa nuclear cell fractions, Dynabeads Protein A and Protein G; immunoblot; rabbit IgG IP as control
T1 sequence: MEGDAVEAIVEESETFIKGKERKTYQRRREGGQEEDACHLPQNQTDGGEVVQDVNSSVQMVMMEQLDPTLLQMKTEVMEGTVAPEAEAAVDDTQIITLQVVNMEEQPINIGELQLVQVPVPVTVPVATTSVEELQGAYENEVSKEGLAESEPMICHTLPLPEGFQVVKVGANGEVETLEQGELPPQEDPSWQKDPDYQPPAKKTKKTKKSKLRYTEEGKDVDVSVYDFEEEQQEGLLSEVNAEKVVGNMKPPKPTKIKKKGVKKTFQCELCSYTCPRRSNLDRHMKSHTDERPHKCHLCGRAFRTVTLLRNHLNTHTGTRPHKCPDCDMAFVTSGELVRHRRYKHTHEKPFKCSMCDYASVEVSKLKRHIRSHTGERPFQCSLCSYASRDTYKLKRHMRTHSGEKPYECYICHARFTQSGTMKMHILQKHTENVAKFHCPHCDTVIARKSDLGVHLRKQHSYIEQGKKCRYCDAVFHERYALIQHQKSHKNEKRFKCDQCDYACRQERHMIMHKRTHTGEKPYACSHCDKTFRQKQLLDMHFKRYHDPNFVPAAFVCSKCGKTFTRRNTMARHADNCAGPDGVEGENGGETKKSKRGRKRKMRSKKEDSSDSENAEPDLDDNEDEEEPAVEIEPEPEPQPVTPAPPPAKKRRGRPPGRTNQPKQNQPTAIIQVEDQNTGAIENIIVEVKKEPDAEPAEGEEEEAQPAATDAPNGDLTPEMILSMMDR

binding, binds:
BAF47 (HeLa) (from UniProt Q12824 1-385), BRD9 (HeLa) (from UniProt Q9H8M2 1-597), BAF170 (HeLa) (from UniProt Q8TAQ2 1-1214)
